The test system of the series is PRC2 (EZH2/SUZ12/EED) (Homo sapiens). The series is described as follows: EMSA. Particulars: estimated; 50 mM Tris pH 8.0, 100 mM NaCl, 5 mM MgCl2, 50 ng/ml yeast tRNA, 30 C; 2 nM RNA; purified recombinant protein; label: 5'-32P.

Results on one sequence are retold here after patent US20190055553.

Construct, isoform or probe ends are uncertain for at least one entry.

In the case of “UCCCCUAAACAAAGACGAGGUCUUGCUAUGUUGCCCAGACUGGUCUCAAACUCCUGAGCUCAAGUGAUCCUCCUGCCUCAGCCUUCUAAAAUGCCGGGAUUACAGGCAUGAGCCACUGUACCUGGCCUUAAAUUUCUUAACAUAGCUAGCAUUUGGAGAAAACCAACCAAUAACAACAAAAGACCAACAAAAUUAAAUUUAACGAGGACGAAAAGACAGCAAGUGACAUAAAAAGUUUAAACAUUUUGAUUUAGACUAUGUAUCUGUUCCACUAUGAAGCUAUGAGUAAAAAAAAAAAAUCAAGCAUAAAUACUUUCAUGCUUUUCCUUAAUACACACACACACACACACACACACACAGCUCACAUAGCAUUUCGAGGGCGAUUUUAAGUAAAUGUCUUGGGUAGAACACCUGUUCUAACCCCAUCCCAAUACACAGUAU”, the binding result is “binds”.
